## Primary screen of a compound library

Sequences of proteins named here, by UniProt entry; tags and fusion partners are left off.
UniProt E9BF75, entry or part of it: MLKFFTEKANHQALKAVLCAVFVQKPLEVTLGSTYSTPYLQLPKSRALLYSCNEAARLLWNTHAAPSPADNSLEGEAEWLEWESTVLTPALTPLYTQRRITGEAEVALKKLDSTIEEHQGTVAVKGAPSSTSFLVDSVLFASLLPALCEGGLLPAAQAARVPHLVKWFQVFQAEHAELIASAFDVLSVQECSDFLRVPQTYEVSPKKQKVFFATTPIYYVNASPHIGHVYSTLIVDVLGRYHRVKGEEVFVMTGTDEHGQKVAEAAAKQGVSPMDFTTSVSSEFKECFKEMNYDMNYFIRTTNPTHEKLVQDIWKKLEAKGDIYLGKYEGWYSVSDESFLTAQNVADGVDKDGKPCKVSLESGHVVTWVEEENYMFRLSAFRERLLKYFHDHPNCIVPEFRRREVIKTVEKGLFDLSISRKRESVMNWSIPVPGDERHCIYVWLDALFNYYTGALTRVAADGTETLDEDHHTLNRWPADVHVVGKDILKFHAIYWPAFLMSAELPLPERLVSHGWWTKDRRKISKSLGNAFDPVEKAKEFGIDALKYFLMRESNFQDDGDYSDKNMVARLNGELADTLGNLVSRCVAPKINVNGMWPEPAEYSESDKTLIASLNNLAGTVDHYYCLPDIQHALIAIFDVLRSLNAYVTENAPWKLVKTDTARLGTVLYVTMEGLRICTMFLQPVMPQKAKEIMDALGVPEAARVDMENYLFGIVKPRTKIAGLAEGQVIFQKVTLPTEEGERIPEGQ

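Methionyl-tRNA synthetase (putative), Leishmania donovani (UniProt E9BF75). Primary screen of methionyl-tRNA synthetase; the read-out is not stated. The test concentration is not given. Values are per cent inhibition. Size under these conditions: about 68,000 compounds, about 24 of them at 50% or above in at least one test.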

Results are percentages, as filed.
The record does not define 0% and 100%; most values in the screen are far below 50% and negative numbers occur (in some assays of this library far below -100).
Compounds were drawn at random from those tested, without regard to their results.

structure | inhibition
COc1cc(Br)c(CNc2ccn(CCC(N)=O)n2)cc1OC | 15.41%
CCc1ccc(CN2CCC3(CC2)CNC(=O)CO3)o1 | 10.48%
CS(=O)(=O)NC[C@H]1Cn2c(-c3ccccc3)cnc2CO1 | 21.36%
COc1cc2c(nn1)CCN(Cc1ncc(C(C)(C)C)o1)C2 | 17.9%
C[C@@H]1CN(C(=O)c2cc(Cn3cnc4ccccc43)on2)C[C@H](C)O1 | 5.842%
O=C1CC(c2ccccc2)c2cnn(C3CCCC3)c2N1 (centres undefined) | 7.038%
CCN(CCN1CCCCCC1)C(=O)c1cnc(-c2cccnc2)nc1 | 20.88%
O=C(O)[C@@H]1CN(Cc2ccc3nsnc3c2)C[C@H]1c1ccncc1 | 4.01%
CCC(NC(=O)CN(C)Cc1ccc(C)o1)c1ccc(Br)cc1 (centres undefined) | 3.846%
CC(C)(C)n1ncc2c1NC(=O)CC2c1ccc(OCC(N)=O)cc1 (centres undefined) | 17.04%
CCN(CCN1CCOCC1)C(=O)c1cccnc1 | 11.08%
Cn1ccnc1-c1cn(Cc2cn3c(n2)SCC3)nn1 | 6.316%
CCc1n[nH]c(C(=O)NCCn2ccnc2C)c1C | 18.43%
CC(C(=O)N1CCC(Nc2cccnn2)CC1)n1cccn1 (centres undefined) | 0%
CCOc1ccnc(N2CCN(C(=O)c3cnc[nH]3)CC2)n1 | 22.25%
CN(C1CCCC1)C(C)(C)C(=O)NCCS(C)(=O)=O | 5.385%
CCC(=O)N1CCC2(CC1)CC(CC(=O)NC1CC1)c1ccccc1O2 (centres undefined) | 12.89%
c1cnc(N2CC[C@@H]3O[C@@H](COCc4cccnc4)CC[C@@H]32)nc1 | 6.569%
CCCn1ccnc1-c1nccn1CCC(N)=O | 19.31%
CCN1CCN(c2ncc(-c3cc(C)no3)c(-c3ccoc3C)n2)CC1 | 13.36%
Cc1cc(C)n(CC2CN(Cc3noc(C4CC4)n3)CCO2)n1 (centres undefined) | 20.22%
Cc1cc(C)n(CC(C)CNC(=O)N(C)Cc2cc(C)on2)n1 (centres undefined) | 0.274%
O=S(=O)(NC1CCCOC1)c1ccc(C(F)(F)F)nc1 (centres undefined) | 10.92%
COc1ccc(-n2nc(C)c(C(C)=O)c2C)cc1CO | 8.824%
CCN(CC)C(CNC(=O)c1ccnc(N(C)C)c1)c1ccsc1 (centres undefined) | 7.062%
Cc1cc(NC(=O)NCCc2ccsc2)n(C)n1 | 4.425%
Cc1ccc(-c2cc(C(=O)NC(C)C(=O)N3CCCCC3)on2)cc1 (centres undefined) | 22.54%
COc1cc(C2(C(=O)NCC(=O)NC3CC3)CC2)ccc1C | 13.04%
Cc1noc(C)c1CN1CCC(N(C)Cc2nnc(C3CC3)n2C)C1 (centres undefined) | 13.89%
CCc1nc(C(=O)N2CCN(Cc3ccc(Cl)cc3)CC2)c[nH]1 | 13.24%
NCc1ccnc(Oc2ccc(F)cc2)c1 | 16.72%
CC(C)c1csc(NC(=O)NC2CCCN(c3cnn(C)c3)C2)n1 (centres undefined) | 6.859%
N#Cc1nccnc1NC1CCN(c2ccccc2OC(F)F)C1 (centres undefined) | 14.14%
CC(C)(C)c1ncc(S(C)(=O)=O)c(C2CCCNC2)n1 (centres undefined) | 7.902%
Cc1ccc(C(=O)N2C[C@@H]3[C@@H](C2)OCC(=O)N3Cc2cccnc2)o1 | 9.929%
CC(=O)Nc1ccc(C(=O)Nc2cnc3n2CCCC3)cc1C | -8.065%
O=C(N[C@@H]1CNCCC[C@H]1O)c1ccc(OCCN2CCCC2)cc1 | 10.99%
Cc1nn(C)c(C)c1CC(=O)N1CCCN(c2cccnn2)CC1 | 9.836%
CCc1cc(C(=O)N2CCC(c3cc4ncccc4cn3)CC2)on1 | 14.15%
Cn1cccc1C(=O)NCc1cnc2n1CCN(C(N)=O)CC2 | 17.04%
O=c1oc2ccccc2n1CCCN1CCCC1c1ccc(O)cc1 (centres undefined) | 13.18%
CC(C)[C@@H]1CN(S(=O)(=O)c2cccc(C(=O)O)c2)C[C@H]1N(C)C | 8.273%
CC(C)c1cc(=O)[nH]c(-n2nc(C3CC3)cc2N)n1 | 10.63%
CC(C)N(C)S(=O)(=O)c1ccc2c(c1)CCN(C(=O)c1ccccn1)C2 | 3.715%
Cc1cc(C)nc(C2CCN(C(=O)CO)CC2)n1 | 10.59%
CCc1cc(=O)n(CC(=O)N2CCC(C)CC2)c(-c2ccccc2)n1 | 17.85%
CC(C)c1nc(CN2CCCCC2Cn2cncn2)cs1 (centres undefined) | 7.692%
CCCNC(=O)CNC(=O)CCc1ccccc1Br | 13.27%
C[C@@H]1CN(C(=O)c2cccc(F)c2)C[C@]12CCN(c1ccsc1)C2=O | 9.453%
O=C(c1ccnn1COc1ccc(Cl)cc1)N1CCCC1 | -0.6865%
O=C([C@@H]1CCCN1c1nccc(Nc2ccccc2)n1)N1CCCCC1 | 1.944%
CN1CC(=O)N(C2CCCNC2)Cc2c(NC3CCC3)ncnc21 (centres undefined) | 6.857%
COc1ncc(Cl)c(NCc2ccc([S+](C)[O-])cc2)n1 (centres undefined) | 14.95%
CN1CCC2(CCC1=O)CCN(C(=O)Cc1ccc(O)c(F)c1)CC2 | 13.1%
CCSCCC(=O)NCCn1nc2ccccn2c1=O | 12.73%
CCC(C)(C)CC(=O)NC(C)C(=O)Nc1ccc(-n2cncn2)cc1 (centres undefined) | 19.16%
CN(C)C(=O)COc1ccccc1CN1CCCC2(C1)CN(C)C(=O)O2 (centres undefined) | 6.137%
O=C(COc1ccccc1F)N1CCCCC1c1ccn2ccnc2n1 (centres undefined) | 8.475%
CCNc1cc2c(nn1)CCN(C(=O)c1cccnc1N(C)C)C2 | 16.94%
C[C@@H](O)CNC(=O)c1nc(CC(=O)Nc2cccc(C(F)(F)F)c2)no1 | 4.805%
Cn1ccnc1CN1CCCC1Cn1cccn1 (centres undefined) | 14.21%
O=C(CN1CCS(=O)(=O)CC1)NCc1ccccc1F | 15.38%
Cc1ccccc1C1(CNC(=O)N2CCC(CC(N)=O)CC2)CC1 | 10.34%
O=C(CN1CCC(N2CCNC2=O)CC1)NCC(F)(F)F | 7.042%

For reference, 5 entries once more:

structure,inhibition
O=C1CC(c2ccccc2)c2cnn(C3CCCC3)c2N1 (centres undefined),7.038%
Cc1ccc(C(=O)N2C[C@@H]3[C@@H](C2)OCC(=O)N3Cc2cccnc2)o1,9.929%
C[C@@H]1CN(C(=O)c2cc(Cn3cnc4ccccc43)on2)C[C@H](C)O1,5.842%
O=C(c1ccnn1COc1ccc(Cl)cc1)N1CCCC1,-0.6865%
CC(C(=O)N1CCC(Nc2cccnn2)CC1)n1cccn1 (centres undefined),0%

Measurements from “University of Dundee, Small-Polar-MMV Screening Library” (2021), ChEMBL document CHEMBL3988442.